Measured values from the supplement of paper PMC10849652.
This is one part of the list.

By UniProt entry, the sequences of proteins in these tests, tags left out. Where a name states a change or a piece, a line headed by the entry shows the natural chain unless it says otherwise.
UniProt Q9Y2P4: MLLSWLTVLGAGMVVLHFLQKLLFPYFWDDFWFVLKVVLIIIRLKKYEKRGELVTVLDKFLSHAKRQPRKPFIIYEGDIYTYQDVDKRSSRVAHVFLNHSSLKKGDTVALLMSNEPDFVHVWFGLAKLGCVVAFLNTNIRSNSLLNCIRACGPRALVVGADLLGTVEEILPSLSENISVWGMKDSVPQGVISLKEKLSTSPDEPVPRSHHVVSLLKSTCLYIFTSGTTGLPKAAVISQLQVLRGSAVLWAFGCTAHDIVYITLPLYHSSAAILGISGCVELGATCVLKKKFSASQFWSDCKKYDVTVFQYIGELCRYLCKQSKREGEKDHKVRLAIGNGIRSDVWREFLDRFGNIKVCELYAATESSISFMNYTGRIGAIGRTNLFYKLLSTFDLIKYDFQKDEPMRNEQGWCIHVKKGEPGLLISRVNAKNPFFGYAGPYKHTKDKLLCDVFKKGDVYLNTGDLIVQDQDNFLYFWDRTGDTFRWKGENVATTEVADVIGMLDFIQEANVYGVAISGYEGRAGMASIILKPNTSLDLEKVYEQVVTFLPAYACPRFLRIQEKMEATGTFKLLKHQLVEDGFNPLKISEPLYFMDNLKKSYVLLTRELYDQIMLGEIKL
UniProt Q9NTN3, whole entry, looked up: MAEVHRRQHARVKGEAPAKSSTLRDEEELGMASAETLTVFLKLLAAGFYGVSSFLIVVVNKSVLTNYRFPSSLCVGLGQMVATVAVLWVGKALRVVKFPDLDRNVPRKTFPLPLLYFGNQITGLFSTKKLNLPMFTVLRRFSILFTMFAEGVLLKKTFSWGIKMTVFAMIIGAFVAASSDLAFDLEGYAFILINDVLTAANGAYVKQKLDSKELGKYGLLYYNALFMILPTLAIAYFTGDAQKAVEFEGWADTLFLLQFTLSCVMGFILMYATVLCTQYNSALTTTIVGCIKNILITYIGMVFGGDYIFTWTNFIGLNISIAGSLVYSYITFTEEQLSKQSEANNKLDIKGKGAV
UniProt Q8N8R3: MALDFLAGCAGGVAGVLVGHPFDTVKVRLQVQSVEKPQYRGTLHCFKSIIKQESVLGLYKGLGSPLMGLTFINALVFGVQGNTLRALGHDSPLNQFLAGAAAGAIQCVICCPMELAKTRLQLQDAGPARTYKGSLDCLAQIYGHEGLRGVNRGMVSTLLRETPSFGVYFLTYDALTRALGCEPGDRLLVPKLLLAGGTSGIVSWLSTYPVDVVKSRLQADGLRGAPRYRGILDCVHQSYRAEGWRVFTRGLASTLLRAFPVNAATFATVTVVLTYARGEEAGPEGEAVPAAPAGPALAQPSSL
UniProt Q6P1K1: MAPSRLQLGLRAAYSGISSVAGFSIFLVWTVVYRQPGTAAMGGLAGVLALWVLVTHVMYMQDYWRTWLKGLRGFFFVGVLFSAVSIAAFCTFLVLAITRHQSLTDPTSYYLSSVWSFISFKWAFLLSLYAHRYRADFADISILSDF
UniProt Q9H015: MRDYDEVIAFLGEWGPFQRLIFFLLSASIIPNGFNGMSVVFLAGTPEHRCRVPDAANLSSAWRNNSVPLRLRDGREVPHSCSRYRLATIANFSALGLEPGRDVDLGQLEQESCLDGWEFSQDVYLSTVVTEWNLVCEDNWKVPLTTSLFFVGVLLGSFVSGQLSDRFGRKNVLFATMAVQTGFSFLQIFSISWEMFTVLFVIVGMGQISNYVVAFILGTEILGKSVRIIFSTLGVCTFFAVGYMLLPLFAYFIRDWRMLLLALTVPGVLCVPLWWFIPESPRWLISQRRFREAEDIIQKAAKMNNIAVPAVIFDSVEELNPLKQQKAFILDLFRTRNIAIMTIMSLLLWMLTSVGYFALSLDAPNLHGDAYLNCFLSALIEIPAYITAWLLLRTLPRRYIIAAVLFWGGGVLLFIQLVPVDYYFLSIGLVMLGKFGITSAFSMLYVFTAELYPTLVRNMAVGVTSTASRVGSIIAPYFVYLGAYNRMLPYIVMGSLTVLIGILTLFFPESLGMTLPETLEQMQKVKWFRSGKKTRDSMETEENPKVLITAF
UniProt Q0GE19: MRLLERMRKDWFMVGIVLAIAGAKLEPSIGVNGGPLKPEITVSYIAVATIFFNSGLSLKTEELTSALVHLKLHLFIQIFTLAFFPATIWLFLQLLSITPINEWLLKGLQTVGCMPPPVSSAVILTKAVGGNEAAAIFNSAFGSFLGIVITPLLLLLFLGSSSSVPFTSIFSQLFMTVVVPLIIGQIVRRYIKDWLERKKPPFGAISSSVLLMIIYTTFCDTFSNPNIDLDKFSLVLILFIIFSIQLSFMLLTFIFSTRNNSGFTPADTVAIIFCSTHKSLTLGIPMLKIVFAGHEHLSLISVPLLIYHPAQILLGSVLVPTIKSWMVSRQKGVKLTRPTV
UniProt Q8IVJ1: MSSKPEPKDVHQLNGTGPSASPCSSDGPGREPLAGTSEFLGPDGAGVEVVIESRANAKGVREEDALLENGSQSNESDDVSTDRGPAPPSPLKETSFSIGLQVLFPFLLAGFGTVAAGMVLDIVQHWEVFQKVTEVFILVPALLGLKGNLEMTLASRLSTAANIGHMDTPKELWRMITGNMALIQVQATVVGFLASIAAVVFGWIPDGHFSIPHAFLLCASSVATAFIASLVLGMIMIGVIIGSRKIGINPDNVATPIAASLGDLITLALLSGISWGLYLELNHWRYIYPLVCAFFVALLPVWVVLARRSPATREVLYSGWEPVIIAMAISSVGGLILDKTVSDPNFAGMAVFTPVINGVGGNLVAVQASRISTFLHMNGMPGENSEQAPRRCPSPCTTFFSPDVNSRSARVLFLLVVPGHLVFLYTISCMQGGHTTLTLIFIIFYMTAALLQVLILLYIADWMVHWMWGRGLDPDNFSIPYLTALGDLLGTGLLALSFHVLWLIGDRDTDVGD
UniProt Q96NT5: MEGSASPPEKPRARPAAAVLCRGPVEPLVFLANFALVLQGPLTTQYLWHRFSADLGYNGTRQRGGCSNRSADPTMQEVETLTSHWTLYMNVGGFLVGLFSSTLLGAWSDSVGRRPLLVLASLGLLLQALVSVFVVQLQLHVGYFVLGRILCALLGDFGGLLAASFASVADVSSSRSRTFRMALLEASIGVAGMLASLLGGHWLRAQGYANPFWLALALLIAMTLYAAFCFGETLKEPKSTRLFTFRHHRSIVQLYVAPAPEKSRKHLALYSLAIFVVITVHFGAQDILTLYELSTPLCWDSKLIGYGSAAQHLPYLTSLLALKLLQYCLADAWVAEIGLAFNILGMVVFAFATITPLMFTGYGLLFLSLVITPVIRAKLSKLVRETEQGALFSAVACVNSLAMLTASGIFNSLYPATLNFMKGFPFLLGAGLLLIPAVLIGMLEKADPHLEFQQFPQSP
UniProt A1A5C7: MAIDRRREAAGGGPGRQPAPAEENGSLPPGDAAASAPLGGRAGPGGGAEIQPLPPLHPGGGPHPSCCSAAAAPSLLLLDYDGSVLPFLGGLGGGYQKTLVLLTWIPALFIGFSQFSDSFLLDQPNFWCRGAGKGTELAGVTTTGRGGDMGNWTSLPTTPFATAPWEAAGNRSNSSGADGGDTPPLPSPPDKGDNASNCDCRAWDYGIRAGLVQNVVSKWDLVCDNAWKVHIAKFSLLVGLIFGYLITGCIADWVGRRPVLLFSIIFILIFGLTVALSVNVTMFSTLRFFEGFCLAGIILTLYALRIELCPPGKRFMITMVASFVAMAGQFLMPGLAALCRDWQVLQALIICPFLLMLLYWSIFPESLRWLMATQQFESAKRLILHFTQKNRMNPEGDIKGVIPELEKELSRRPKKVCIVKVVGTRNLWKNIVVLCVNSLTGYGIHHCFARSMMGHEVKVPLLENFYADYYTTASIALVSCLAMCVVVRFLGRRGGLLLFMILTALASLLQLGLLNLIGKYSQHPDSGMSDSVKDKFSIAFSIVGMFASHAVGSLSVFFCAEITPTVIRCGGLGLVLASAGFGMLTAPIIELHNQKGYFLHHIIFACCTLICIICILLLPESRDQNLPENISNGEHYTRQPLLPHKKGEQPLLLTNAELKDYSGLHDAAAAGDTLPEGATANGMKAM
UniProt Q96K37: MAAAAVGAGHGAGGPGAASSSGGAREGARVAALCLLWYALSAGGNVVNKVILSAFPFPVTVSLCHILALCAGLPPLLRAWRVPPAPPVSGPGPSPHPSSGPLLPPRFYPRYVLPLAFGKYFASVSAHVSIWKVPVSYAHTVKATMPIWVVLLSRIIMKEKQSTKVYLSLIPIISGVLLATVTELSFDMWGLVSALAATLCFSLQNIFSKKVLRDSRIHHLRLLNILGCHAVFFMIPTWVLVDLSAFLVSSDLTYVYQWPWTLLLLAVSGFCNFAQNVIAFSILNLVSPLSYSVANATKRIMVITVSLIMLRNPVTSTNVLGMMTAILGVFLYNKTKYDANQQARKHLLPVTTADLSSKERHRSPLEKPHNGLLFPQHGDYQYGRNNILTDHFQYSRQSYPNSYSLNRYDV
UniProt Q8N2U9: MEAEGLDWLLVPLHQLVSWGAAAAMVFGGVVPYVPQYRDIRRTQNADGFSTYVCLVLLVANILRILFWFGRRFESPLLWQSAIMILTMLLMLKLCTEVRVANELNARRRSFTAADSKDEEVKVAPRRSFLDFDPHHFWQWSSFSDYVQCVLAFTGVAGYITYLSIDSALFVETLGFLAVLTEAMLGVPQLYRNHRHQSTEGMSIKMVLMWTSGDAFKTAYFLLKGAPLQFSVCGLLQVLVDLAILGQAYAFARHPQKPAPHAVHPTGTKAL
UniProt F5GZS6: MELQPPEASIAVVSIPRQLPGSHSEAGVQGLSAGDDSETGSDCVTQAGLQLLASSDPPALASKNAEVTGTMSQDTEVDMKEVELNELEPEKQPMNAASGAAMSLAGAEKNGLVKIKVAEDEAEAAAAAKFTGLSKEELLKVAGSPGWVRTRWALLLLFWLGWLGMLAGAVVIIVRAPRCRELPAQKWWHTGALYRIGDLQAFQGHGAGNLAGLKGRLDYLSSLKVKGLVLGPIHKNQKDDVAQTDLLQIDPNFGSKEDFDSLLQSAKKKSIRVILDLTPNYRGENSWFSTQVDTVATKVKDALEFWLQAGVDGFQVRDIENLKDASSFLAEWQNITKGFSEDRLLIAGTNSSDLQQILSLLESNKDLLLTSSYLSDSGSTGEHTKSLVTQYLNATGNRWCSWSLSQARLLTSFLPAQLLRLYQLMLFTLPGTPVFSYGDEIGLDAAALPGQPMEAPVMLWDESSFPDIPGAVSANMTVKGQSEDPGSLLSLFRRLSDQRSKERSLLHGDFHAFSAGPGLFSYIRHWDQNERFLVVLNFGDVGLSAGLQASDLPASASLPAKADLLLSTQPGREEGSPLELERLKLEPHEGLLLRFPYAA
UniProt Q9HAB3: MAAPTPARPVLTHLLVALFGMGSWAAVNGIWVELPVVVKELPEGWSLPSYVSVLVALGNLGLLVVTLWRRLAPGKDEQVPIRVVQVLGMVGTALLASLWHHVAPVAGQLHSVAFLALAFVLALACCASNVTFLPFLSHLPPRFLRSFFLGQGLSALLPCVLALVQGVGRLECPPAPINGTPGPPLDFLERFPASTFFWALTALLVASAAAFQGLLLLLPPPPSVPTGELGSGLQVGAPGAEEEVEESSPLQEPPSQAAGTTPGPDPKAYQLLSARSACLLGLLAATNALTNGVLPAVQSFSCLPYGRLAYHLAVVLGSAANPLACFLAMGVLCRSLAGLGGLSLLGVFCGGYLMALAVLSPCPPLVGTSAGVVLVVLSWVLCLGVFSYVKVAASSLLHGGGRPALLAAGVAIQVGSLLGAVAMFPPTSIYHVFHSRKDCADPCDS
UniProt Q2M3R5: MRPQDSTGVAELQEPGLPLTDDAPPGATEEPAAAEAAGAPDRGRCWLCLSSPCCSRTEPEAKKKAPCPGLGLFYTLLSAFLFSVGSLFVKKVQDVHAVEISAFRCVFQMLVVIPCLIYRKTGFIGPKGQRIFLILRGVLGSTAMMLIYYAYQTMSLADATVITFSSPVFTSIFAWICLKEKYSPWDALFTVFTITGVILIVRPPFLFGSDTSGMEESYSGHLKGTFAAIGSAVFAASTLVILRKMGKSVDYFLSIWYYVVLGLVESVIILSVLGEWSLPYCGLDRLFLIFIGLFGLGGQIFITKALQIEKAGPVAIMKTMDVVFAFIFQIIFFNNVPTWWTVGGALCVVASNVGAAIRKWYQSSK
UniProt P09131: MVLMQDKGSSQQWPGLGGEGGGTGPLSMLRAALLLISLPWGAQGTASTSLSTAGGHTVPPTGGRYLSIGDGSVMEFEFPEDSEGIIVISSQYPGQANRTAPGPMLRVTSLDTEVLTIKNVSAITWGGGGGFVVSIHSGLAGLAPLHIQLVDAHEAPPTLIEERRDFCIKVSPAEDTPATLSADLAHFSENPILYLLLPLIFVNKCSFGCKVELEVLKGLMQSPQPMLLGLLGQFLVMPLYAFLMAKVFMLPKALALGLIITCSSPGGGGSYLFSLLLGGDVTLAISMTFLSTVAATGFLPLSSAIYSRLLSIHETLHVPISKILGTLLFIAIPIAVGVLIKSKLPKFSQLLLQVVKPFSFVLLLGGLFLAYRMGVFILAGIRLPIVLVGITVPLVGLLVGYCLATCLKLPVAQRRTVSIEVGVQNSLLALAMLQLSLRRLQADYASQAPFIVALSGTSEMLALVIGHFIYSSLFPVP

Columns and labels:
Assay in all cases: log2 fold change, soluble protein after heating vs DMSO (PISA); higher = thermal stabilisation; K562 cells, 10 uM, 30 min; active = over 0.2 and 3.5 SD of the protein, either way, in both replicates (recomputed)
[1] = compound: NC1(c2ccc(-c3nc4ccn5c(=O)[nH]nc5c4cc3-c3ccccc3)cc2)CCC1
Outline: (§1)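 Values are thermal stability changes relative to control samples and are taken from duplicates. They are stated as log2 fold changes. Before quantification by TMTpro 16plex LC-MS/MS with equalised channel sums, K562 cells at 2×10^6 cells/mL were treated with 10 μM compound for 30 min, heated in aliquots for 3 min across 48°C-58°C, pooled, extracted in PBS with 0.5% NP-40 at 4°C, and centrifuged at 21,000xg for 90 min to give the soluble supernatant.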

[2] = compound: NCC(=O)Nc1ccc(-n2nc(C(F)(F)F)cc2-c2ccc3c(ccc4ccccc43)c2)cc1
Outline: as §1

silmitasertib = compound: O=C(O)c1ccc2c(c1)nc(Nc1cccc(Cl)c1)c1ccncc12 [silmitasertib]
Outline: as §1

[3] = compound: O=C1NC(=O)C(c2cnc3ccccn23)=C1c1cn2c3c(cc(F)cc13)CN(C(=O)N1CCCCC1)CC2
Outline: as §1

vorinostat = compound: O=C(CCCCCCC(=O)Nc1ccccc1)NO [vorinostat]
Outline: as §1

[4] = compound: NC(=O)c1cnc(N[C@@H]2CCCC[C@@H]2N)nc1Nc1cccc(-n2nccn2)c1
Outline: as §1

citarinostat = compound: O=C(CCCCCCNC(=O)c1cnc(N(c2ccccc2)c2ccccc2Cl)nc1)NO [citarinostat]
Outline: as §1

[5] = compound: c1cc(OCCN2CCCCC2)cc(-c2n[nH]c3ccc(-c4nnc[nH]4)cc23)c1
Outline: as §1

[6] = compound: NC(=O)Nc1cc(-c2cccc(F)c2)sc1C(=O)N[C@H]1CCCNC1
Outline: as §1

entinostat = compound: Nc1ccccc1NC(=O)c1ccc(CNC(=O)OCc2cccnc2)cc1 [entinostat]
Outline: as §1

Measured: log2 fold change

SLC27A6 (UniProt Q9Y2P4)
inactive: [1] 0.019 | [2] -0.022 | silmitasertib -0.011 | [3] 0.031

SLC26A2 (UniProt P50443)
inactive: [1] 0.114 | [2] -0.007 | vorinostat 0.03 | silmitasertib 0.034 | [3] -0.106

SLC35D1 (UniProt Q9NTN3)
inactive: [4] -0.139 | [2] 0.027

SLC25A29 (UniProt Q8N8R3)
inactive: citarinostat -0.162 | [5] -0.287

SLC31A1 (UniProt O15431)
inactive: [4] 0.005 | [1] 0.02 | [2] -0.028 | vorinostat -0.252 | citarinostat -0.029 | silmitasertib -0.062 | [3] 0.115 | [5] -0.048

SLC23A2 (UniProt Q9UGH3)
inactive: [6] -0.095 | entinostat -0.063

SLC25A14 isoform 3 (UniProt O95258)
inactive: [4] -0.056 | [1] 0.033 | [2] 0.037 | vorinostat 0.033 | citarinostat 0.203 | silmitasertib 0.083 | [5] -0.071

SLC1A3 (UniProt P43003)
inactive: [4] 0.237 | [1] 0.103 | [2] -0.055 | vorinostat 0.143 | citarinostat -0.096 | silmitasertib -0.021 | [3] -0.18 | [5] -0.182

SLC35A5 (UniProt Q9BS91)
inactive: [4] 0.027 | [3] -0.041

SLC48A1 (UniProt Q6P1K1)
inactive: [6] -0.229 | entinostat 0.073 | citarinostat 0.149 | [5] -0.006

SLC25A35 (UniProt Q3KQZ1)
inactive: [4] 0.087 | [2] 0.081 | vorinostat 0.015 | citarinostat 0.091 | [5] -0.094

SLC4A3 isoform 3 (UniProt P48751)
inactive: [4] -0.331 | [1] -0.146 | silmitasertib 0.044

SLC36A4 (UniProt Q6YBV0)
inactive: [1] -0.022 | silmitasertib -0.078 | [3] 0.105

SLC22A4 (UniProt Q9H015)
inactive: [4] 0.016 | [2] 0.029 | [3] -0.104

SLC35C1 (UniProt Q96A29)
inactive: [4] 0.012 | [2] 0.037 | vorinostat -0.004 | citarinostat -0.12 | [3] 0.197 | [5] 0.025

SLC10A7 isoform 1 (UniProt Q0GE19)
inactive: [4] 0.031 | [1] 0.096 | citarinostat 0.015 | silmitasertib -0.237 | [5] -0.088

SLC41A1 (UniProt Q8IVJ1)
inactive: [6] 0.214 | [1] -0.064 | entinostat 0.109 | vorinostat 0.134 | silmitasertib 0.054 | [3] 0.188

SLC6A19 (UniProt Q695T7)
inactive: [1] -0.329 | silmitasertib 0.028

SLC36A1 (UniProt Q7Z2H8)
inactive: [1] -0.033 | silmitasertib 0.06

SLC46A1 (UniProt Q96NT5)
inactive: [4] -0.143 | [2] 0.137 | vorinostat -0.005 | citarinostat -0.061 | [5] 0.01

SLC50A1 (UniProt Q9BRV3)
inactive: [4] 0.921 | [1] -0.072 | citarinostat 0.026 | silmitasertib 0.012 | [5] -0.186

SLC22A23 (UniProt A1A5C7)
inactive: [1] 0.138 | vorinostat 0.137 | citarinostat 0.007 | silmitasertib 0.083 | [5] 0.163

SLC35E1 (UniProt Q96K37)
inactive: [4] -0.034 | [1] -0.057 | [2] -0.075 | vorinostat 0.004 | citarinostat -0.264 | silmitasertib 0 | [3] 0.075 | [5] -0.088

SLC39A9 (UniProt Q9NUM3)
inactive: [2] -0.036

SLC66A3 (UniProt Q8N755)
inactive: [6] -0.002 | [1] 0.037 | entinostat -0.159 | silmitasertib -0.06 | [3] -0.007

SLC66A2 (UniProt Q8N2U9)
inactive: [1] 0.097 | silmitasertib 0.11 | [3] 0.2

SLC43A3 (UniProt Q8NBI5)
inactive: [6] 0.099 | entinostat -0.044 | [3] 0.131

SLC39A1 (UniProt Q9NY26)
inactive: vorinostat 0.181

SLC35F5 (UniProt Q8WV83)
inactive: [6] 0.06 | entinostat -0.113 | vorinostat -0.101 | [3] -0.08

SLC3A2 (UniProt F5GZS6)
inactive: [4] 0.114 | [1] -0.008 | [2] -0.056 | citarinostat -0.065 | silmitasertib 0.008 | [3] 0.167 | [5] -0.339

SLC52A2 (UniProt Q9HAB3)
inactive: [1] 0.049 | vorinostat 0.041 | citarinostat 0.041 | silmitasertib -0.013 | [5] -0.004

SLC35G1 (UniProt Q2M3R5)
inactive: [4] 0.06

SLC10A3 (UniProt P09131)
inactive: [1] -0.227 | silmitasertib 0.204 | [3] 0.091
